Measured values as given in ChEMBL document CHEMBL4043130, “Discovery of a tetrahydroisoquinoline-based HDAC inhibitor with improved plasma stability” (Bioorg Med Chem, 2017).

Assay: Inhibition of HDAC in human HeLa nuclear extract preincubated for 5 mins followed by Boc-Lys (acetyl)-AMC addition measured after 10 mins by fluorescence assay

Q: Which IC50 does the source give for `O=C(CCCCCCC(=O)Nc1ccccc1)NO` [VORINOSTAT] here?
A: 194 nM
